# Results as given in PubChem BioAssay AID1487 (National Center for Advancing Translational Sciences (NCATS), 2009).
# Several values for one entry are separate records, joined by “and”; a condition that tells them apart may be missing. Identical values can stand only once. This is one part of the list. Further columns of the screen follow, without active or inactive calls. The list favours compounds with an active or inconclusive main result. Words in brackets tell the shape of the fitted curve; partial curves, single points and poor fits give uncertain potencies.
# Test: qHTS Assay for Modulators of Lamin A Splicing
# Details: HeLa LMNA splicing GFP/RFP minigene ratio, 48 h
# How it was run: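 S3 HeLa stable clones carrying a lamin A-EGFP splicing minigene plus DsRed2 were seeded at 600 cells/well in Opti-MEM with 2% FBS, pin-dosed and incubated 48 h at 37°C. Acumen cytometry (488 nm) gave the GFP/RFP total-intensity ratio.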
# [1] = measured here: GFP splicing reporter channel
# [2] = measured here: RFP viability control channel
SMILES,AC50 [1],AC50 [2]
O=c1cc(N2CCCCC2)c(-c2ccccc2)nn1Cc1ccc(Cl)cc1Cl,"35.5 µM [falling, single point]","22.4 µM [falling, partial curve]"
Cc1ccc(-n2ncc3c(N4CCC(C)CC4)ncnc32)cc1C,"0.0224 µM [falling, full curve, poor fit]",–
COc1ccc(Cn2nnnc2C(c2cccs2)N2CCSCC2)cc1 (stereo unspecified),–,"31.6 µM [rising, single point]"
CCOC(=O)Cc1csc(NC(=O)CCN2C(=O)c3ccccc3C2=O)n1,–,"35.5 µM [rising, single point]"
O=C(NCC1CCCO1)C(c1cccs1)N(Cc1cccs1)C(=O)c1ccc(-c2ccccc2)[nH]1 (stereo unspecified),"22.4 µM [rising, single point]","35.5 µM [rising, single point]"
COc1ccc(CCN(Cc2cc3cc(C)c(C)cc3nc2Cl)C(=O)C2CC2)cc1,–,"5.62 µM [rising, single point]"
C[C@]12CC[C@@H]3c4ccc(O)cc4CC[C@H]3[C@@H]1CC[C@@H]2O,"3.16 µM [rising, full curve] and 3.98 µM [falling, full curve, poor fit] and 3.16 µM [rising, single point]","4.47 µM [rising, single point] and 12.6 µM [falling, partial curve] and 6.31 µM [falling, partial curve, poor fit]"
COC(=O)c1sc(N)c(C(=O)OC)c1CSc1nnc(-c2ccccc2Cl)n1C,–,"2.51 µM [rising, partial curve, poor fit]"
CC1CCCCN1C(=O)CSc1nc2ccccc2nc1Cc1ccc(Cl)cc1 (stereo unspecified),–,"35.5 µM [rising, single point]"
CCN(CC)S(=O)(=O)c1ccc(NCC2COc3ccccc3O2)c([N+](=O)[O-])c1 (stereo unspecified),–,"14.1 µM [rising, single point]"
Clc1ccc2c(c1)C(C1=NCCN1)c1ccccc1CS2 (stereo unspecified),–,"0.631 µM [rising, full curve, poor fit]"
CC(OC(=O)Cc1coc2ccc3ccccc3c12)C(=O)Nc1ncc(Cl)cc1Cl (stereo unspecified),–,"2.24 µM [rising, partial curve, poor fit]"
O=C(CC1S/C(=N/N=C/c2ccco2)NC1=O)Nc1ccccc1 (stereo unspecified),"0.794 µM [rising, single point]",–
CCOc1cccc(CNCCO)c1OCc1ccc(Cl)cc1Cl,–,"7.94 µM [rising, partial curve, poor fit]"
CC(C(=O)Nc1ccccc1Oc1ccccc1)c1ccccc1 (stereo unspecified),–,"2.24 µM [rising, full curve, poor fit]"
COc1ccc(-c2cc(C(=O)N3CCN(c4ccccc4)CC3)c3ccccc3n2)cc1,–,"10 µM [rising, partial curve, poor fit]"
CC(=O)Nc1ccc(S(=O)(=O)NCCSCc2ccccc2Cl)cc1,"7.08 µM [rising, partial curve, poor fit]","8.91 µM [rising, partial curve]"
O=C(c1ccccc1F)N1CCN(c2ccc([N+](=O)[O-])c3cccnc23)CC1,"10 µM [falling, partial curve, poor fit]","7.08 µM [falling, full curve, poor fit]"
Cc1ccc(C(C)C)c(OCC(=O)Nc2nc3c(s2)CCCC3)c1,–,"5.62 µM [rising, single point]"
CCCNNC(=O)C(O)(c1ccccc1)c1ccccc1,–,"0.0708 µM [rising, partial curve, poor fit]"
CC(C)c1ccc(NC(=S)NCc2cccs2)cc1,–,"35.5 µM [rising, single point]"
COc1ccc(-n2cc(C(=O)NCc3ccc(Cl)cc3)c3ccccc3c2=O)cc1,"4.47 µM [rising, partial curve, poor fit]","2.82 µM [rising, full curve]"
CCC(=O)Nc1cccc(-n2nnnc2SCC(=O)c2ccc(C)c(C)c2)c1,–,"14.1 µM [rising, partial curve, poor fit]"
CCOC(=O)c1ccc(Nc2nc(C(=O)OCC)nc3ccccc23)cc1,"22.4 µM [falling, single point]",–
Cc1cc(C)c(S(=O)(=O)NCC(c2ccc(N(C)C)cc2)N2CCc3ccccc32)c(C)c1 (stereo unspecified),–,"35.5 µM [rising, partial curve, poor fit]"
COc1cccc(OC)c1C(=O)Nc1nc2ccc([N+](=O)[O-])cc2s1,–,"28.2 µM [falling, partial curve, poor fit]"
CCCOc1ccccc1C1CC(=O)Nc2cc3c(cc21)OCCO3 (stereo unspecified),–,"3.16 µM [rising, full curve]"
COc1cccc(Cn2c(=O)c(-c3ccccc3)nc3cnc(N4CCNCC4)nc32)c1,"10 µM [falling, partial curve]",–

SMILES,AC50 [1],AC50 [2]
CCCn1c(O)c(/C=C2\C=NN=C2c2ccccc2)sc1=S,"35.5 µM [falling, single point]","15.8 µM [falling, single point]"
COC(=O)CNC(c1ccccc1)c1cc(C)ccc1NC(=O)c1cccc(Cl)c1 (stereo unspecified),"1 µM [rising, partial curve]",–
Cc1cc(OCC(=O)Nc2ccncc2)cc(C)c1Br,"11.2 µM [rising, partial curve, poor fit]","5.62 µM [rising, full curve]"
CCCNC(=O)c1c(N)n(-c2cccc(OC)c2)c2nc3ccccc3nc12,"20 µM [falling, partial curve]","31.6 µM [falling, single point]"
Cc1cc(C(=O)CSc2ncccn2)c(C)n1-c1cccc(F)c1,"10 µM [rising, partial curve]","14.1 µM [rising, partial curve]"
Clc1ccc(C2=C3CCCCn4c(-c5ccccc5)c[n+](c43)C2)cc1,"35.5 µM [falling, single point]","35.5 µM [falling, single point]"
O=C(Cn1cnc2c(cnn2-c2ccc(F)cc2)c1=O)NCc1ccco1,–,"35.5 µM [rising, single point]"
O=C(NCc1noc2ccccc12)Nc1ccc(F)cc1F,–,"0.000708 µM [falling, full curve, poor fit]"
Cc1cc(C(=O)N2CCCC(CNS(=O)(=O)c3cccs3)C2)nn1C (stereo unspecified),–,"0.0447 µM [falling, full curve, poor fit]"
CCOc1cccc(C2c3[nH]c4ccccc4c3CCN2C(=O)CCc2ccccc2)c1 (stereo unspecified),"0.562 µM [rising, single point]","0.562 µM [rising, full curve]"
CCOc1ccc(CN2CCN(CC(O)Cn3c4ccccc4c4ccccc43)CC2)cc1 (stereo unspecified),–,"35.5 µM [rising, single point]"
CCN(CC)S(=O)(=O)c1ccc2nc(NC(=O)c3ccc(Br)o3)sc2c1,"0.0251 µM [rising, full curve, poor fit]",–
Oc1ccccc1Oc1c(F)c(F)nc(N2CCCC2)c1F,"0.1 µM [rising, single point]",–
O=C(CCn1cnc(-c2ccccc2)c1-c1ccccc1)N/N=C/c1ccccc1O,–,"22.4 µM [rising, partial curve]"
CC1(C)S[C@@H]2[C@H](NC(=O)[C@@H](N)c3ccc(O)cc3)C(=O)N2[C@H]1C(=O)O,"0.00891 µM [falling, full curve, poor fit]","0.00891 µM [falling, full curve, poor fit]"
C#CC(C)(CC)NC(=O)Cn1nnc(-c2ccc(S(C)(=O)=O)cc2)n1 (stereo unspecified),"12.6 µM [rising, partial curve, poor fit]","15.8 µM [rising, single point]"
Cc1ccc(C(=O)Nc2ccc3c(c2)OCO3)cc1S(=O)(=O)N1CCCCC1,–,"31.6 µM [rising, single point]"
CC(C)COc1ccc(S(=O)(=O)NNC(=O)c2cc3ccccc3o2)cc1,–,"31.6 µM [rising, single point]"
O=S(=O)(c1ccc(Cl)c(Cl)c1)c1snnc1-c1ccccc1,–,"35.5 µM [falling, single point]"
COc1cccc(C(=O)Nc2nc(-c3ccc(S(=O)(=O)N4CCOCC4)cc3)cs2)c1,–,"3.98 µM [rising, full curve, poor fit]"
O=C1c2ccccc2C(=O)C12OC2c1ccc(Cl)cc1 (stereo unspecified),–,"31.6 µM [rising, single point]"
CCC(=O)N1CCc2cc(CNS(=O)(=O)c3ccc(Cl)s3)ccc21,"0.398 µM [rising, partial curve, poor fit]",–
CCn1c(C(=O)N2CCCC(C(=O)NCCc3ccc(C)cc3)C2)cc2sccc21 (stereo unspecified),"11.2 µM [rising, partial curve]","14.1 µM [rising, partial curve]"
COc1ccc(Cc2nc(C(=O)Nc3ccccc3)cs2)cc1,–,"10 µM [rising, partial curve]"
COC(=O)/C=C1/N/C(=N\c2nc(C)cc(C)n2)N(c2ccc(Cl)cc2)C1=O,–,"11.2 µM [rising, partial curve]"
CCOc1ccc(NC(=O)C(C)Oc2ccccc2C(=O)Nc2ccc(C)c(Cl)c2)cc1 (stereo unspecified),"25.1 µM [falling, single point]","17.8 µM [falling, partial curve]"
Cc1cc(C)cc(NC(=S)NC2CC3CCCC(C2)N3CC(C)C)c1 (stereo unspecified),–,"0.00794 µM [rising, full curve, poor fit]"
